Reference: doi:10.1101/2020.12.31.424961
Results are given in words; binding and its absence hold for the method and conditions named. Binding seen in cells or lysates may run through a third protein. Here binding means that the protein was enriched with, or labelled near, the bait; the list need not be complete.

What was measured:
[1] = target: SARS-CoV-2 ORF3a, SFB- or BioID2-tagged (SARS-CoV-2), P0DTC3; assay: affinity purification with mass spectrometry + proximity labelling; conditions: remark: other sources report otherwise
[2] = target: SARS-CoV-2 ORF7b, SFB- or BioID2-tagged (SARS-CoV-2) (UniProt P0DTD8); assay: as above

B1: VPS11, Q9H270 1-941 (protein)
chain: MAAYLQWRRFVFFDKELVKEPLSNDGAAPGATPASGSAASKFLCLPPGITVCDSGRGSLVFGDMEGQIWFLPRSLQLTGFQAYKLRVTHLYQLKQHNILASVGEDEEGINPLVKIWNLEKRDGGNPLCTRIFPAIPGTEPTVVSCLTVHENLNFMAIGFTDGSVTLNKGDITRDRHSKTQILHKGNYPVTGLAFRQAGKTTHLFVVTTENVQSYIVSGKDYPRVELDTHGCGLRCSALSDPSQDLQFIVAGDECVYLYQPDERGPCFAFEGHKLIAHWFRGYLIIVSRDRKVSPKSEFTSRDSQSSDKQILNIYDLCNKFIAYSTVFEDVVDVLAEWGSLYVLTRDGRVHALQEKDTQTKLEMLFKKNLFEMAINLAKSQHLDSDGLAQIFMQYGDHLYSKGNHDGAVQQYIRTIGKLEPSYVIRKFLDAQRIHNLTAYLQTLHRQSLANADHTTLLLNCYTKLKDSSKLEEFIKKKSESEVHFDVETAIKVLRQAGYYSHALYLAENHAHHEWYLKIQLEDIKNYQEALRYIGKLPFEQAESNMKRYGKILMHHIPEQTTQLLKGLCTDYRPSLEGRSDREAPGCRANSEEFIPIFANNPRELKAFLEHMSEVQPDSPQGIYDTLLELRLQNWAHEKDPQVKEKLHAEAISLLKSGRFCDVFDKALVLCQMHDFQDGVLYLYEQGKLFQQIMHYHMQHEQYRQVISVCERHGEQDPSLWEQALSYFARKEEDCKEYVAAVLKHIENKNLMPPLLVVQTLAHNSTATLSVIRDYLVQKLQKQSQQIAQDELRVRRYREETTRIRQEIQELKASPKIFQKTKCSICNSALELPSVHFLCGHSFHQHCFESYSESDADCPTCLPENRKVMDMIRAQEQKRDLHDQFQHQLKCSNDSFSVIADYFGRGVFNKLTLLTDPPTARLTSSLEAGLQRDLLMHSRRGT
[1]
  binding: binds

B2: NAPA (protein, UniProt P54920 1-295)
chain: MDNSGKEAEAMALLAEAERKVKNSQSFFSGLFGGSSKIEEACEIYARAANMFKMAKNWSAAGNAFCQAAQLHLQLQSKHDAATCFVDAGNAFKKADPQEAINCLMRAIEIYTDMGRFTIAAKHHISIAEIYETELVDIEKAIAHYEQSADYYKGEESNSSANKCLLKVAGYAALLEQYQKAIDIYEQVGTNAMDSPLLKYSAKDYFFKAALCHFCIDMLNAKLAVQKYEELFPAFSDSRECKLMKKLLEAHEEQNVDSYTESVKEYDSISRLDQWLTTMLLRIKKTIQGDEEDLR
[2]
  binding: binds

B3: STX12 (protein, UniProt Q86Y82 1-276)
chain: MSYGPLDMYRNPGPSGPQLRDFSSIIQTCSGNIQRISQATAQIKNLMSQLGTKQDSSKLQENLQQLQHSTNQLAKETNELLKELGSLPLPLSTSEQRQQRLQKERLMNDFSAALNNFQAVQRRVSEKEKESIARARAGSRLSAEERQREEQLVSFDSHEEWNQMQSQEDEVAITEQDLELIKERETAIRQLEADILDVNQIFKDLAMMIHDQGDLIDSIEANVESSEVHVERATEQLQRAAYYQKKSRKKMCILVLVLSVIILILGLIIWLVYKTK
[2]
  binding: binds

B4: STX6 (protein, UniProt O43752 1-255)
chain: MSMEDPFFVVKGEVQKAVNTAQGLFQRWTELLQDPSTATREEIDWTTNELRNNLRSIEWDLEDLDETISIVEANPRKFNLDATELSIRKAFITSTRQVVRDMKDQMSTSSVQALAERKNRQALLGDSGSQNWSTGTTDKYGRLDRELQRANSHFIEEQQAQQQLIVEQQDEQLELVSGSIGVLKNMSQRIGGELEEQAVMLEDFSHELESTQSRLDNVMKKLAKVSHMTSDRRQWCAIAILFAVLLVVLILFLVL
[2]
  binding: binds

B5: VPS18, Q9P253 1-973 (protein)
chain: MASILDEYENSLSRSAVLQPGCPSVGIPHSGYVNAQLEKEVPIFTKQRIDFTPSERITSLVVSSNQLCMSLGKDTLLRIDLGKANEPNHVELGRKDDAKVHKMFLDHTGSHLLIALSSTEVLYVNRNGQKVRPLARWKGQLVESVGWNKALGTESSTGPILVGTAQGHIFEAELSASEGGLFGPAPDLYFRPLYVLNEEGGPAPVCSLEAERGPDGRSFVIATTRQRLFQFIGRAAEGAEAQGFSGLFAAYTDHPPPFREFPSNLGYSELAFYTPKLRSAPRAFAWMMGDGVLYGALDCGRPDSLLSEERVWEYPEGVGPGASPPLAIVLTQFHFLLLLADRVEAVCTLTGQVVLRDHFLEKFGPLKHMVKDSSTGQLWAYTERAVFRYHVQREARDVWRTYLDMNRFDLAKEYCRERPDCLDTVLAREADFCFRQRRYLESARCYALTQSYFEEIALKFLEARQEEALAEFLQRKLASLKPAERTQATLLTTWLTELYLSRLGALQGDPEALTLYRETKECFRTFLSSPRHKEWLFASRASIHELLASHGDTEHMVYFAVIMQDYERVVAYHCQHEAYEEALAVLARHRDPQLFYKFSPILIRHIPRQLVDAWIEMGSRLDARQLIPALVNYSQGGEVQQVSQAIRYMEFCVNVLGETEQAIHNYLLSLYARGRPDSLLAYLEQAGASPHRVHYDLKYALRLCAEHGHHRACVHVYKVLELYEEAVDLALQVDVDLAKQCADLPEEDEELRKKLWLKIARHVVQEEEDVQTAMACLASCPLLKIEDVLPFFPDFVTIDHFKEAICSSLKAYNHHIQELQREMEEATASAQRIRRDLQELRGRYGTVEPQDKCATCDFPLLNRPFYLFLCGHMFHADCLLQAVRPGLPAYKQARLEELQRKLGAAPPPAKGSARAKEAEGGAATAGPSREQLKADLDELVAAECVYCGELMIRSIDRPFIDPQRYEEEQLSWL
[1]
  binding: binds

B6: VPS16, Q9H269 1-839 (protein)
chain: MDCYTANWNPLGDSAFYRKYELYSMDWDLKEELRDCLVAAAPYGGPIALLRNPWRKEKAASVRPVLDIYSASGMPLASLLWKSGPVVSLGWSAEEELLCVQEDGAVLVYGLHGDFRRHFSMGNEVLQNRVLDARIFHTEFGSGVAILTGAHRFTLSANVGDLKLRRMPEVPGLQSAPSCWTVLCQDRVAHILLAVGPDLYLLDHAACSAVTPPGLAPGVSSFLQMAVSFTYRHLALFTDTGYIWMGTASLKEKLCEFNCNIRAPPKQMVWCSRPRSKERAVVVAWERRLMVVGDAPESIQFVLDEDSYLVPELDGVRIFSRSTHEFLHEVPAASEEIFKIASMAPGALLLEAQKEYEKESQKADEYLREIQELGQLTQAVQQCIEAAGHEHQPDMQKSLLRAASFGKCFLDRFPPDSFVHMCQDLRVLNAVRDYHIGIPLTYSQYKQLTIQVLLDRLVLRRLYPLAIQICEYLRLPEVQGVSRILAHWACYKVQQKDVSDEDVARAINQKLGDTPGVSYSDIAARAYGCGRTELAIKLLEYEPRSGEQVPLLLKMKRSKLALSKAIESGDTDLVFTVLLHLKNELNRGDFFMTLRNQPMALSLYRQFCKHQELETLKDLYNQDDNHQELGSFHIRASYAAEERIEGRVAALQTAADAFYKAKNEFAAKATEDQMRLLRLQRRLEDELGGQFLDLSLHDTVTTLILGGHNKRAEQLARDFRIPDKRLWWLKLTALADLEDWEELEKFSKSKKSPIGYLPFVEICMKQHNKYEAKKYASRVGPEQKVKALLLVGDVAQAADVAIEHRNEAELSLVLSHCTGATDGATADKIQRARAQAQKK
[1]
  binding: binds

B7: VAMP4 (protein, UniProt O75379 1-141)
chain: MPPKFKRHLNDDDVTGSVKSERRNLLEDDSDEEEDFFLRGPSGPRFGPRNDKIKHVQNQVDEVIDVMQENITKVIERGERLDELQDKSESLSDNATAFSNRSKQLRRQMWWRGCKIKAIMALVAAILLLVIIILIVMKYRT
[2]
  binding: binds

B8: NAPG (protein, UniProt Q99747 1-312)
chain: MAAQKINEGLEHLAKAEKYLKTGFLKWKPDYDSAASEYGKAAVAFKNAKQFEQAKDACLREAVAHENNRALFHAAKAYEQAGMMLKEMQKLPEAVQLIEKASMMYLENGTPDTAAMALERAGKLIENVDPEKAVQLYQQTANVFENEERLRQAVELLGKASRLLVRGRRFDEAALSIQKEKNIYKEIENYPTCYKKTIAQVLVHLHRNDYVAAERCVRESYSIPGFNGSEDCAALEQLLEGYDQQDQDQVSDVCNSPLFKYMDNDYAKLGLSLVVPGGGIKKKSPATPQAKPDGVTATAADEEEDEYSGGLC
[2]
  binding: binds

B9: STX10 (protein, UniProt O60499 1-249)
chain: MSLEDPFFVVRGEVQKAVNTARGLYQRWCELLQESAAVGREELDWTTNELRNGLRSIEWDLEDLEETIGIVEANPGKFKLPAGDLQERKVFVERMREAVQEMKDHMVSPTAVAFLERNNREILAGKPAAQKSPSDLLDASAVSATSRYIEEQQATQQLIMDEQDQQLEMVSGSIQVLKHMSGRVGEELDEQGIMLDAFAQEMDHTQSRMDGVLRKLAKVSHMTSDRRQWCAIAVLVGVLLLVLILLFSL
[2]
  binding: binds

B10: VPS39, Q96JC1 1-886 (protein)
chain: MHDAFEPVPILEKLPLQIDCLAAWEEWLLVGTKQGHLLLYRIRKDVVPADVASPESGSCNRFEVTLEKSNKNFSKKIQQIHVVSQFKILVSLLENNIYVHDLLTFQQITTVSKAKGASLFTCDLQHTETGEEVLRMCVAVKKKLQLYFWKDREFHELQGDFSVPDVPKSMAWCENSICVGFKRDYYLIRVDGKGSIKELFPTGKQLEPLVAPLADGKVAVGQDDLTVVLNEEGICTQKCALNWTDIPVAMEHQPPYIIAVLPRYVEIRTFEPRLLVQSIELQRPRFITSGGSNIIYVASNHFVWRLIPVPMATQIQQLLQDKQFELALQLAEMKDDSDSEKQQQIHHIKNLYAFNLFCQKRFDESMQVFAKLGTDPTHVMGLYPDLLPTDYRKQLQYPNPLPVLSGAELEKAHLALIDYLTQKRSQLVKKLNDSDHQSSTSPLMEGTPTIKSKKKLLQIIDTTLLKCYLHTNVALVAPLLRLENNHCHIEESEHVLKKAHKYSELIILYEKKGLHEKALQVLVDQSKKANSPLKGHERTVQYLQHLGTENLHLIFSYSVWVLRDFPEDGLKIFTEDLPEVESLPRDRVLGFLIENFKGLAIPYLEHIIHVWEETGSRFHNCLIQLYCEKVQGLMKEYLLSFPAGKTPVPAGEEEGELGEYRQKLLMFLEISSYYDPGRLICDFPFDGLLEERALLLGRMGKHEQALFIYVHILKDTRMAEEYCHKHYDRNKDGNKDVYLSLLRMYLSPPSIHCLGPIKLELLEPKANLQAALQVLELHHSKLDTTKALNLLPANTQINDIRIFLEKVLEENAQKKRFNQVLKNLLHAEFLRVQEERILHQQVKCIITEEKVCMVCKKKIGNSAFARYPNGVVVHYFCSKEVNPADT
[1]
  binding: binds
